The text below walks through data of article PMC11695829, “DSIF factor Spt5 coordinates transcription, maturation and exoribonucleolysis of RNA polymerase II transcripts” (Nature Communications, 2025).

No constants are given. Whether binding was seen depends on the method and setting. A result given as binding can be weak or reduced; the word gives no strength. For some of these results: Sequences can lack the tags named with a protein.

Experiment [1] has as its target T1, full-length Rai1 Strep-tagged (S. pombe) (UniProt O13836).
T1 sequence: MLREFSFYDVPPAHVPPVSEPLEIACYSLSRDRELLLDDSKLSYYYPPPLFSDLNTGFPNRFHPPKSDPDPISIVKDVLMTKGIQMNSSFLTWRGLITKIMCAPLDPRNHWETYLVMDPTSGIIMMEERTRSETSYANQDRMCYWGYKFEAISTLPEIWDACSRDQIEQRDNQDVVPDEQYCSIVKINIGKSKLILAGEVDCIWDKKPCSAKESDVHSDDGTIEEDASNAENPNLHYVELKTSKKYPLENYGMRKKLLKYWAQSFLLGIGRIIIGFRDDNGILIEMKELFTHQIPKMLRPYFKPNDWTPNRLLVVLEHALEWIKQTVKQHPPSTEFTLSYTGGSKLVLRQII
The experiment can be described thus: pull-down; Rai1 immobilised on beads and challenged with Xrn2 or Xrn2/Spt4/5; no Pol II; both purified.

Experiment [2] addresses T2, Rpc10 (Rpb12) (subunit of the purified S. pombe Pol II) (S. pombe) (UniProt P48011).
T2 sequence: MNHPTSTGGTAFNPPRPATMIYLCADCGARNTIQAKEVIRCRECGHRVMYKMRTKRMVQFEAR
The experiment can be described thus: cross-linking; reconstituted Pol II-DSIF-Xrn2^M-Rai1-DNA-RNA complex cross-linked with BS3 on ice for 1 h; cross-linked peptides by mass spectrometry (pLink); both purified.

For experiment [3], the target named is T3, Rpb3 (subunit of the purified S. pombe Pol II) (S. pombe) (UniProt P37382).
T3 sequence: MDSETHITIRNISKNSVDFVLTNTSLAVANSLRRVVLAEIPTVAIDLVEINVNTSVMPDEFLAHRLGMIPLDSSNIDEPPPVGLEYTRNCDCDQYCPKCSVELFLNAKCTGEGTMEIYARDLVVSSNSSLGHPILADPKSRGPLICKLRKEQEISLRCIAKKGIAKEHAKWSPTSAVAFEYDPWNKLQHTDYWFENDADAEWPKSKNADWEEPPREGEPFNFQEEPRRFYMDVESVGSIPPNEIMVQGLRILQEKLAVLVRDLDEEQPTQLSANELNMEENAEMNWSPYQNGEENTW
The description is as above.

In experiment [4] the target is T2, Rpc10 (Rpb12) (subunit of the purified S. pombe Pol II) (S. pombe). The experiment can be described thus: cryo-EM structure; Pol II-scaffold 1-Spt4/5-Xrn2^M/Rai1 complex assembled on M2 Flag resin, eluted with 3xFlag peptide, cross-linked with 0.1% glutaraldehyde; 2.67 Å map; both purified.

“C-terminally truncated Xrn2 (residues 1–885), WT (S. pombe) (enzyme)”: in experiment [1], the binding entry was “binds”.

Turning to “Xrn2^M (D237A), residues 1–885 (S. pombe) (enzyme)”, the binding result in experiment [2], in experiment [3] and in experiment [4] was “binds” throughout.
